Among the data in US20050118601 are binding result and activity on this sequence (fold induction) values, retold here.

Chains of the proteins cited; added tags and fusions are not shown. Where a name states a change or a piece, a line headed by the entry shows the natural chain unless it says otherwise. Chains listed by the source or under a name are the forms on record and can include a tag or linker.
UniProt P19793: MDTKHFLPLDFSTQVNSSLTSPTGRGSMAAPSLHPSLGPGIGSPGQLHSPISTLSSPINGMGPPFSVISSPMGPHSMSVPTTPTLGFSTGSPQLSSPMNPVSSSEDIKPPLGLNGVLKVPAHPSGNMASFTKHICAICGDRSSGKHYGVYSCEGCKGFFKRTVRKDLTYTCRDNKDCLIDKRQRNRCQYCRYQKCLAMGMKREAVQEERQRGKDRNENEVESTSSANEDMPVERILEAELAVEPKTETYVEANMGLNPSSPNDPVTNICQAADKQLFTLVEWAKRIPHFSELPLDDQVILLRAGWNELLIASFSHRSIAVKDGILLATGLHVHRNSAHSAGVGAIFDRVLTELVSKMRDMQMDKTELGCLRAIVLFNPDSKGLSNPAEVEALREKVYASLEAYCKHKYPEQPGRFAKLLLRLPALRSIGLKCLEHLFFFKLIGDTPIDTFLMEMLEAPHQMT
UniProt P28700: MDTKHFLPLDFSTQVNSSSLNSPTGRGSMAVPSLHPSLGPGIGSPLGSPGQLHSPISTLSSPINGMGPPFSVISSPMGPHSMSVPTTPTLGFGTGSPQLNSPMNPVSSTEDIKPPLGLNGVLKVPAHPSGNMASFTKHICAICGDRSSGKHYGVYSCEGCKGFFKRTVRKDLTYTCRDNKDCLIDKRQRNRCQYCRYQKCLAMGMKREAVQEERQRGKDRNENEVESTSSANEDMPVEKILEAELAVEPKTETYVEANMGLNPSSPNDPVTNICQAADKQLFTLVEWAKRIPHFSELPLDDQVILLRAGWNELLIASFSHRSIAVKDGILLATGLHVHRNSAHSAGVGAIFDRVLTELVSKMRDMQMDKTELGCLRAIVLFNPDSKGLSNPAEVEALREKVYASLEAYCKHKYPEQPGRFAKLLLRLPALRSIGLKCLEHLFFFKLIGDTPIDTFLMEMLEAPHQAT
PXR/RXRalpha heterodimer (Homo sapiens), one chain, as listed by the source: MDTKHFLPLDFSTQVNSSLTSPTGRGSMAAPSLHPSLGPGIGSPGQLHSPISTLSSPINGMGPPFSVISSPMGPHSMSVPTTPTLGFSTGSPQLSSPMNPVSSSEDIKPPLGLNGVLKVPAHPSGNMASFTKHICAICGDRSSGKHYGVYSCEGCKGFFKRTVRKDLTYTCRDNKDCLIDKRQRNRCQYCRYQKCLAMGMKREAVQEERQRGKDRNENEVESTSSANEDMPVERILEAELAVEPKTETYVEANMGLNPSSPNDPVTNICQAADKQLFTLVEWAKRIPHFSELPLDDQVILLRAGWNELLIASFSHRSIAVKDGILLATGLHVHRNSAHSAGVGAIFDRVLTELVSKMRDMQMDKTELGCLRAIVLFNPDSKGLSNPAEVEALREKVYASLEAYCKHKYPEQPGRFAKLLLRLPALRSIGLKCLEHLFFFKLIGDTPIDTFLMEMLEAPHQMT
PXR/RXR heterodimer (Mus musculus), one chain, as listed by the source: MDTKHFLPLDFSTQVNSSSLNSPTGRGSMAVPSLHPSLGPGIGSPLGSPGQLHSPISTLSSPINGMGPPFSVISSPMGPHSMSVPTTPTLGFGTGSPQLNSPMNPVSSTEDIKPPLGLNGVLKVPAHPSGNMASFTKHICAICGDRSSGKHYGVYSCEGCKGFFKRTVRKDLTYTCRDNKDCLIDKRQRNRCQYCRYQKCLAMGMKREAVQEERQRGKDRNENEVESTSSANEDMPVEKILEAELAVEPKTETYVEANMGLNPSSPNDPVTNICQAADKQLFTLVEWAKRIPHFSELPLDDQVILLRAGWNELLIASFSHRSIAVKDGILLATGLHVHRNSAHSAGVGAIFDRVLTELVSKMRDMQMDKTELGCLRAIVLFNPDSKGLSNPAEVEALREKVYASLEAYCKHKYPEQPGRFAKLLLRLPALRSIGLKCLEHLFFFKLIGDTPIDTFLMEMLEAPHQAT

The target of one data set is T1, CXR (Gallus gallus) (UniProt A0A8V1AGS4).
T1 sequence (looked up, limits assumed): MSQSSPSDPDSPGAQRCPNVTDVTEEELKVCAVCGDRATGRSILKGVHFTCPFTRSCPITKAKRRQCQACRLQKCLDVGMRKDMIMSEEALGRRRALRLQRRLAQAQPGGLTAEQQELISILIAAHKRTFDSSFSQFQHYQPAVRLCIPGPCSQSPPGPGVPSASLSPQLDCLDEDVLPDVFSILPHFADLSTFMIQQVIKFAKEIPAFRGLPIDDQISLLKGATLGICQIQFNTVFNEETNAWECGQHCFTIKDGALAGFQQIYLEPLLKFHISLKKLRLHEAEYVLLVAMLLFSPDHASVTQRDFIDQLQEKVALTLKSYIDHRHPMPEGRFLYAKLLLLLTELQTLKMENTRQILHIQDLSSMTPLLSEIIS
Briefly: EMSA. As to conditions: CXR alone; protein translated in vitro; protein details: TNT T7 Quick Coupled, pSG5; label: 32P. Background: Mobility shift assays separate free from complexed probe on a gel.

The next data set concerns the target T2, CAR (Homo sapiens) (UniProt Q14994).
T2 sequence (looked up, limits assumed): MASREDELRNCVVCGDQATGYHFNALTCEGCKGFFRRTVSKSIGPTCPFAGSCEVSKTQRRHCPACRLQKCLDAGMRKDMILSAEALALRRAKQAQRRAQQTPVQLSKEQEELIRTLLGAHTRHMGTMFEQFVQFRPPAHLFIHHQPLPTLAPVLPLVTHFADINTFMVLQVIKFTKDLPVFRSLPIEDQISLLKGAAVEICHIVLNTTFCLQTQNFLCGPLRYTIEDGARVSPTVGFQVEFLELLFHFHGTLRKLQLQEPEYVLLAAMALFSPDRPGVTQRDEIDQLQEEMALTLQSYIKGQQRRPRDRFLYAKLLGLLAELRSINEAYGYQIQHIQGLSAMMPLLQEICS
Briefly: EMSA. As to conditions: CAR alone; protein translated in vitro; protein details: TNT reticulocyte lysate; label: radiolabel.

The next data set concerns the target T3, PXR (Homo sapiens) (UniProt O75469).
T3 sequence (looked up, limits assumed): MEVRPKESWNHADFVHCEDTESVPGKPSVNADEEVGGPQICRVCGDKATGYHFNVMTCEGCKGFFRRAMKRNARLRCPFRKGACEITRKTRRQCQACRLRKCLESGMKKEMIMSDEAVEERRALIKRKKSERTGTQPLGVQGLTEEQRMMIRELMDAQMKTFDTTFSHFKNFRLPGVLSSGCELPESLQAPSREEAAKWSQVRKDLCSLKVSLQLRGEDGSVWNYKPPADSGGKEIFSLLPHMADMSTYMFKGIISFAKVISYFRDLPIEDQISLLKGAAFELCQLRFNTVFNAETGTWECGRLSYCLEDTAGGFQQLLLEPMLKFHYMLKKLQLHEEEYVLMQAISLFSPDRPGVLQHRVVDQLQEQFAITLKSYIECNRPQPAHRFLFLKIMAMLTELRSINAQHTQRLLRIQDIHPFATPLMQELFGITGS
Briefly: EMSA. As to conditions: PXR alone; protein translated in vitro; protein details: TNT reticulocyte lysate; label: radiolabel.

The test system of data set [1] is PXR/RXRalpha heterodimer (Homo sapiens). Kind of data set: EMSA. Particulars: protein translated in vitro; protein details: TNT reticulocyte lysate; label: radiolabel.
Data set [2] has as its system CAR/RXRalpha heterodimer (Homo sapiens). Briefly: EMSA. Particulars: protein translated in vitro; protein details: TNT reticulocyte lysate; label: radiolabel.
A further data set concerns the target RXRalpha (Homo sapiens) (UniProt P19793). Briefly: EMSA. As to conditions: RXRalpha alone; protein translated in vitro; protein details: TNT reticulocyte lysate; label: radiolabel.
Another data set deals with T4, PXR (Mus musculus) (UniProt O54915).
T4 sequence (looked up, limits assumed): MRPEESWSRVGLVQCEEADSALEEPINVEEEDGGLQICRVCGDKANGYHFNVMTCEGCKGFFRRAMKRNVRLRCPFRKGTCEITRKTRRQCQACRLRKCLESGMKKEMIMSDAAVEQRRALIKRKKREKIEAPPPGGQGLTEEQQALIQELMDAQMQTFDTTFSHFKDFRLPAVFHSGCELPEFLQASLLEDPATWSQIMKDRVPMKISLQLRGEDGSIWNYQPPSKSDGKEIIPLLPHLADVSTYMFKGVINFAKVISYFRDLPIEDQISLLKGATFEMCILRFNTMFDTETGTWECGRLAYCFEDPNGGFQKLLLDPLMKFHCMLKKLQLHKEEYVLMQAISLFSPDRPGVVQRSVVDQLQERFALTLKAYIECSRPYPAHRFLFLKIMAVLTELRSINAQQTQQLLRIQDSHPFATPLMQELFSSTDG
Kind of data set: activity in cells. As to conditions: PCN, CV-1 cells, protein in cells, protein details: pSG5 expression.

The next data set addresses RXR (Mus musculus) (UniProt P28700). Briefly: EMSA. As to conditions: RXR alone; text for FIG. 15A says bound, likely a missing negation; protein translated in vitro; protein details: TNT T7 Quick Coupled; label: 32P.
In data set [3] the test system is PXR/RXR heterodimer (Mus musculus). Briefly: EMSA. Particulars: 40 mM KCl, pH 8.0, poly(dI-dC), room temperature; protein translated in vitro; protein details: TNT T7 Quick Coupled; label: 32P.
A further data set deals with T5, CAR (Mus musculus) (UniProt O35627).
T5 sequence (looked up, limits assumed): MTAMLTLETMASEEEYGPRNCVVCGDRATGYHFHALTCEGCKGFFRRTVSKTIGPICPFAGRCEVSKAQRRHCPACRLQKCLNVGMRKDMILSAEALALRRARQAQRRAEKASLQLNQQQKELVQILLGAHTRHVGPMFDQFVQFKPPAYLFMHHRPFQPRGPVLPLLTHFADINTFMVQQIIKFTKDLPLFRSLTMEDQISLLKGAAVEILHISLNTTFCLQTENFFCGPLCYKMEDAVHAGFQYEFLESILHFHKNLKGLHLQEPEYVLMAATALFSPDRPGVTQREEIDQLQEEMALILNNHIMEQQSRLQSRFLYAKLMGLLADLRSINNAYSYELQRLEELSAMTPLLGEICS
Briefly: EMSA. As to conditions: CAR alone; protein translated in vitro; protein details: TNT T7 Quick Coupled; label: 32P.

Data set [4] has as its system CAR/RXR heterodimer (Mus musculus). Kind of data set: EMSA. Particulars: protein translated in vitro; protein details: TNT T7 Quick Coupled; label: 32P.

For part of these data: Negatives hold for the conditions tested. For part of these data: Where a protein sequence is shown, tags need not be part of it. For part of these data: The exact form of at least one protein or probe is not confirmed.

With “GGGCTCCATCGGCCTCTTCAGGTTATTGCTATGTTCAACTCGTGTGACCTTCCTCCCTGTTTTCAAGGTTCTGATAACAAACTTCTAGGACAGCCTGGTGACCTTTGGCTCAGCTTCCTCTTTAAACTCCGGTGGCTTTTGCTTCATTGCCTAGTTGTTACCCAGCAGTAAAGATC (double strand) [176 bp ADRES]”, the binding result in the data set with CXR (Gallus gallus) is “no binding”.
For the sequence “TCTGGCAGTCAGACAGGCCTAAGCTAAACCTTTCCCCCCCAGCTACCCACCAGGGTCATCCCCAAGCCAGGTCAGGGCCAATGGAGGTTGGGGTGGAGAAGACAGGCTTGGCCCTATTTCCTGCCCAACTCAGAACCTTCTGGTTTCTGCCACAGGATGCCTTGCAAGCTTATCGGGGTCACTGTGGGCAGCTGGGTGAGCTAAGTTCATCTGTGCTGCCGTGACCTCTGTGCAGATGCA (double strand) [hA240]”, the binding result with CAR (Homo sapiens) is given as “no binding”; with PXR (Homo sapiens), “no binding”; in data set [1], “binds”; in data set [2] it was “binds”; in the data set with RXRalpha (Homo sapiens), “no binding”.
In turn, “GTGGCTGGGTTGGGATGGGATGGGAAGGCTTGTGTCTCTCTGATTCCTAGTCCAGTCAGAACCTTCTGGCTTCTGCCATGAGACAGCCTATGAGCTCATCAGGTTCCTGGTGGAGAGCTGGGTGAACCGAGTTCGTTTGCACTGCCTTGGCCTGTGTGTGGCTTCAGGAACAGGTCATGCTCCAGGATTTAGGACACAGGTTAGCTGATAAGGCCCATGGAGCCGGTGATATGACCCGCAGGGTCACTCCCTCTGCCCAAGTCTAGATACTTGTTTCCCTCTTTAGACTCCAGATCAAGGACTCCAGATCTGTCATGGACTCAGAAAACCCCCCAGTACCACCCCACCCCCGCTGCTCCCTCCTATGAT (double strand) [369 bp ADRES]” showed an activity on this sequence (fold induction) with PXR (Mus musculus) of 5.6. The binding result with RXR (Mus musculus) was “no binding”; in [3], “binds”; in the data set with CAR (Mus musculus) it was “no binding”; in [4] it was “binds”.
With “CTGCCTCCAGTCCTGAACTTTCTCTGCTGGGATGAGCAGAGTTCACGCTCGGCTGAACTCGTGACTGTGTCAACAGGGGGCATGAAGATCAGCACCAGGCAAAGGTGAGCGGAGTGCACAAGAATGAGGCAGAGACCTTTGGGACAAAGAGTTCCCCACCCGTGGGG (double strand) [167 bp ADRES]”, in the data set with CXR (Gallus gallus), the binding result is “no binding”.
